Several values for one entry are separate records, joined by “and”; a condition that tells them apart may be missing. Equal entries are not always repeated. Structures can show the parent of a compound that is named as a salt.

A short description of data set [1]: Dye speed in the B&W format (spectral sensitization). Particulars: Table VI, 0.8 mmole/mole Ag, various coating sets; for SR (sensitizing ratio): speed at λ-max minus intrinsic speed at 400 nm plus 200 (log E × 100).
Data set [2] is described as follows: Dye speed in the color format (spectral sensitization). Particulars: Table VIII, 0.4 mmole/mole Ag; for SR (sensitizing ratio) / Speed: Kodak C-41 processing.
A short description of data set [3]: Dye stain in the B&W format. Particulars: Table VII, various coating sets; for Stain (maximum absorbance): at the λmax on the same line, RP X-OMAT processing, 0.8 mmole/mole Ag; for Stain λmax: wavelength of the stain absorbance on the same line.
A short description of data set [4]: Dye stain in the color format. As to conditions: Table VIII; for Stain (maximum absorbance): at the stain λmax on the same line, 0.4 mmole/mole Ag; for Stain λmax: wavelength of the stain on the same line.
[5] abbreviates: coating set marked #, potassium salt.

For `CCC(=Cc1oc2ccc(-c3cccc(NC(C)=O)c3)cc2[n+]1CCS(=O)(=O)[O-])C=C1Oc2ccc(-c3cccc(NC(C)=O)c3)cc2N1CCS(=O)(=O)O` [Dye I-15], in data set [1], the “λmax (sensitization) (nm)” value stood at 543 and the “SR (sensitizing ratio)” value is listed as 247. Moreover, in data set [2] (set not marked #), the “SR (sensitizing ratio)” value came out at 211, the Speed is given as 157 and the “Sensitization λmax” value is 540. For the same compound, in data set [3], the “Stain (maximum absorbance)” value was 30 OD × 10^3 and 36 OD × 10^3; the “Stain λmax” value was 485 and 510. For the same compound, in data set [4] (set not marked #), the “Stain (maximum absorbance)” value was found to be 9 OD × 10^3 and the “Stain λmax” value turned out to be 510.
Turning to `CCC(=Cc1oc2ccc(-c3cccc(NC(C)=O)c3)cc2[n+]1CCC(C)S(=O)(=O)[O-])C=C1Oc2ccc(F)cc2N1CCCS(=O)(=O)O` (stereo not drawn) [Dye I-14], in data set [2] (set not marked #), the Speed was found to be 176 and the “Sensitization λmax” value is 540. In data set [3], the “Stain (maximum absorbance)” value is on record as 44 OD × 10^3 and the “Stain λmax” value is on record as 505. In addition, in data set [4] (set not marked #), the “Stain (maximum absorbance)” value is given as 8 OD × 10^3 and the “Stain λmax” value was 508.
In the case of `CCC(=Cc1oc2ccc(-c3ccco3)cc2[n+]1CCCS(=O)(=O)O)C=C1Oc2ccc(-c3ccco3)cc2N1CCCS(=O)(=O)[O-]` [Dye I-50], the “Sensitization λmax” value in data set [2] (coating set marked #) is 560. For the same compound, in data set [4] (coating set marked #), the “Stain (maximum absorbance)” value is over 100 OD × 10^3 and the “Stain λmax” value is 550.
Regarding `CCC(=Cc1oc2ccc(NC(=O)c3ccco3)cc2[n+]1CCCCS(=O)(=O)O)C=C1Oc2ccc(F)cc2N1CCCS(=O)(=O)[O-]` [Dye I-26], in data set [2] (set not marked #), the Speed turned out to be 185 and the “Sensitization λmax” value is given as 540. Moreover, in data set [3], the “Stain (maximum absorbance)” value is 38 OD × 10^3 and the “Stain λmax” value is on record as 508. In data set [4] (set not marked #), the “Stain (maximum absorbance)” value came to 2 OD × 10^3 and the “Stain λmax” value is 510.
As to `CCC(=Cc1oc2ccc(-c3ccccc3)cc2[n+]1CCC(C)S(=O)(=O)O)C=C1Oc2ccc(Cl)cc2N1CCCS(=O)(=O)[O-]` (stereo not drawn) [Dye C-1, reference compound], the “λmax (sensitization) (nm)” value in data set [1] stood at 547. For the same compound, the figures for the “Stain (maximum absorbance)” value in data set [3] and in data set [4] (set not marked #) were 48 OD × 10^3 and 37 OD × 10^3, respectively. The “Stain λmax” value in data set [3] was 508; in data set [4] (set not marked #), 510.
As to `O=S(=O)([O-])CCCN1C(=Cc2sc3ccc(-c4ccccc4)cc3[n+]2CCCS(=O)(=O)O)Sc2ccc(Cl)cc21` [Dye C-11, reference compound], in data set [2] (set not marked #), the “SR (sensitizing ratio)” value amounted to 223, the Speed is recorded as 186 and the “Sensitization λmax” value was 470. Also, in data set [4] (set not marked #), the “Stain (maximum absorbance)” value was 68 OD × 10^3 and the “Stain λmax” value was 465.
Consider `CCC(=Cc1oc2ccc(NC(=O)c3ccccc3)cc2[n+]1CCCS(=O)(=O)[O-])C=C1Oc2ccc(F)cc2N1CCCS(=O)(=O)O` [Dye I-3], for which, in data set [1], the “λmax (sensitization) (nm)” value was found to be 537 and the “SR (sensitizing ratio)” value is recorded as 238. In addition, in data set [2] (set not marked #), the “SR (sensitizing ratio)” value came to 218, the Speed is on record as 192 and the “Sensitization λmax” value stood at 540. For the same compound, in data set [3], the “Stain (maximum absorbance)” value is reported as 36 OD × 10^3 and the “Stain λmax” value was 510. For the same compound, in data set [4] (set not marked #), the “Stain (maximum absorbance)” value was found to be 5 OD × 10^3 and the “Stain λmax” value was found to be 510.
Take `CCC(=Cc1oc2ccc(NC(=O)c3ccccc3O)cc2[n+]1CCC(C)S(=O)(=O)[O-])C=C1Oc2ccc(Cl)cc2N1CCCS(=O)(=O)O` (stereo not drawn) [Dye I-16]: in data set [1], the “λmax (sensitization) (nm)” value was determined as 541. The “Stain (maximum absorbance)” value in data set [3] was 32 OD × 10^3 and 42 OD × 10^3; in data set [4] (set not marked #), 10 OD × 10^3. Moreover, the “Stain λmax” value in data set [3] was 508 and 540; in data set [4] (set not marked #), 510.
Regarding `CCC(=Cc1oc2ccc(-c3ccccc3)cc2[n+]1CC)C=C1Oc2ccc(NC(C)=O)cc2N1CCCS(=O)(=O)[O-]` [Dye C-6, reference compound], in data set [1], the “λmax (sensitization) (nm)” value worked out at 548 and the “SR (sensitizing ratio)” value came to 247. Besides, in data set [2] (set not marked #), the “SR (sensitizing ratio)” value turned out to be 223 and the “Sensitization λmax” value was found to be 550. In addition, in data set [4] (set not marked #), the “Stain (maximum absorbance)” value is reported as 53 OD × 10^3 and the “Stain λmax” value worked out at 512.
`CCC(=Cc1sc2ccc(NC(=O)c3ccccc3O)cc2[n+]1CCCS(=O)(=O)O)C=C1Sc2ccc(NC(=O)c3ccccc3O)cc2N1CCCS(=O)(=O)[O-]` [Dye I-39]: in data set [2] (set not marked #), the “SR (sensitizing ratio)” value is 151, the Speed is given as 114 and the “Sensitization λmax” value is reported as 550. In addition, in data set [4] (set not marked #), the “Stain (maximum absorbance)” value turned out to be 18 OD × 10^3 and the “Stain λmax” value is given as 580.
Consider `CCC(=Cc1oc2ccc(NC(C)=O)cc2[n+]1CCCS(=O)(=O)O)C=C1Oc2ccc(NC(C)=O)cc2N1CCCS(=O)(=O)[O-]` [Dye C-7, reference compound], for which, in data set [2] (set not marked #), the “SR (sensitizing ratio)” value turned out to be 204. Besides, in data set [4] (set not marked #), the “Stain (maximum absorbance)” value is 0 OD × 10^3.
With `CCC(=Cc1oc2ccc(-c3ccco3)cc2[n+]1CCCS(=O)(=O)O)C=C1Oc2ccc(Cl)cc2N1CCCS(=O)(=O)[O-]` [Dye I-47, Anhydro-5-chloro-9-ethyl-5'-(furan-2-yl)-3,3'-di(3-sulfopropyl)oxacarbocyanine hydroxide potassium salt], the “Sensitization λmax” value in data set [2] (coating set marked #) is given as 560. Moreover, in data set [3], the “Stain (maximum absorbance)” value turned out to be 39 OD × 10^3 and the “Stain λmax” value is given as 510. In data set [4] (setting [5]), the “Stain (maximum absorbance)” value was 35 OD × 10^3 and 19 OD × 10^3; the “Stain λmax” value was 512 and 560.
Consider `CCC(=Cc1oc2ccc(NC(=O)c3ccco3)cc2[n+]1CCCS(=O)(=O)O)C=C1Oc2ccc(Cl)cc2N1CCCS(=O)(=O)[O-]` [Dye I-24], for which, in data set [2] (set not marked #), the Speed was determined as 180 and the “Sensitization λmax” value is recorded as 540. For the same compound, in data set [3], the “Stain (maximum absorbance)” value was 46 OD × 10^3 and 41 OD × 10^3; the “Stain λmax” value was 508 and 550. For the same compound, in data set [4] (set not marked #), the “Stain (maximum absorbance)” value was 3 OD × 10^3 and the “Stain λmax” value amounted to 510.
On to `CCC(=Cc1oc2ccc(NC(=O)c3ccco3)cc2[n+]1CCS(=O)(=O)O)C=C1Oc2ccc(NC(=O)c3ccco3)cc2N1CCS(=O)(=O)[O-]` [Dye I-29], for which, in data set [2] (set not marked #), the Speed was 194 and the “Sensitization λmax” value was 550. For the same compound, in data set [3], the “Stain (maximum absorbance)” value was 57 OD × 10^3 and the “Stain λmax” value came out at 512. In data set [4] (set not marked #), the “Stain (maximum absorbance)” value came to 4 OD × 10^3 and the “Stain λmax” value turned out to be 515.
`CCC(=Cc1oc2ccc(-n3cccc3)cc2[n+]1CCCS(=O)(=O)O)C=C1Oc2ccc(F)cc2N1CCCS(=O)(=O)[O-]` [Dye I-44]: the “λmax (sensitization) (nm)” value in data set [1] worked out at 541. For the same compound, in data set [3], the “Stain (maximum absorbance)” value was determined as 30 OD × 10^3 and the “Stain λmax” value was found to be 505. Besides, in data set [4] (coating set marked #), the “Stain (maximum absorbance)” value is reported as 13 OD × 10^3 and the “Stain λmax” value stood at 510.
For `CCC(=Cc1oc2ccc(-c3ccccc3)cc2[n+]1CCCS(=O)(=O)O)C=C1Oc2ccc(F)cc2N1CCCS(=O)(=O)[O-]` [Dye C-2, reference compound], in data set [1], the “λmax (sensitization) (nm)” value was determined as 538 and the “SR (sensitizing ratio)” value came to 235. Further, in data set [2] (set not marked #), the “SR (sensitizing ratio)” value is 223, the Speed came to 188 and the “Sensitization λmax” value is listed as 540. For the same compound, in data set [3], the “Stain (maximum absorbance)” value came to 48 OD × 10^3 and the “Stain λmax” value stood at 504. In data set [4] (set not marked #), the “Stain (maximum absorbance)” value is listed as 19 OD × 10^3 and the “Stain λmax” value turned out to be 508.
For `CCC(=Cc1sc2ccc(-c3ccccc3)cc2[n+]1CCCS(=O)(=O)O)C=C1Sc2ccc(-c3ccccc3)cc2N1CCCS(=O)(=O)[O-]` [Dye C-10, reference compound], in data set [2] (set not marked #), the “SR (sensitizing ratio)” value was found to be 189, the Speed amounted to 142 and the “Sensitization λmax” value is 630. Also, in data set [4] (set not marked #), the “Stain (maximum absorbance)” value is recorded as 65 OD × 10^3 and the “Stain λmax” value is recorded as 582.
`CCC(=Cc1oc2ccc(-c3ccccc3)cc2[n+]1CCS(=O)(=O)O)C=C1Oc2ccc(-c3ccccc3)cc2N1CCS(=O)(=O)[O-]` [Dye C-4, reference compound]: in data set [2] (set not marked #), the Speed was determined as 197 and the “Sensitization λmax” value is on record as 550. Moreover, in data set [3], the “Stain (maximum absorbance)” value was 32 OD × 10^3 and 17 OD × 10^3; the “Stain λmax” value was 505 and 540. For the same compound, the “Stain λmax” value in data set [4] (set not marked #) was 512 and 545.

The values above are taken from US5492802A, “Dye compounds and photographic elements containing such dyes” (Eastman Kodak Company, priority 1994, dated 1996).
